# Reference: patent US20030225152A1, “3-(Arylamino)methylene-1, 3-dihydro-2h-indol-2-ones as kinase inhibitors” (priority 2001, published 2003)
# Amino acid sequences for entries named in this document (tags omitted). Residues count along the entry.
# UniProt P35968, 786-1356: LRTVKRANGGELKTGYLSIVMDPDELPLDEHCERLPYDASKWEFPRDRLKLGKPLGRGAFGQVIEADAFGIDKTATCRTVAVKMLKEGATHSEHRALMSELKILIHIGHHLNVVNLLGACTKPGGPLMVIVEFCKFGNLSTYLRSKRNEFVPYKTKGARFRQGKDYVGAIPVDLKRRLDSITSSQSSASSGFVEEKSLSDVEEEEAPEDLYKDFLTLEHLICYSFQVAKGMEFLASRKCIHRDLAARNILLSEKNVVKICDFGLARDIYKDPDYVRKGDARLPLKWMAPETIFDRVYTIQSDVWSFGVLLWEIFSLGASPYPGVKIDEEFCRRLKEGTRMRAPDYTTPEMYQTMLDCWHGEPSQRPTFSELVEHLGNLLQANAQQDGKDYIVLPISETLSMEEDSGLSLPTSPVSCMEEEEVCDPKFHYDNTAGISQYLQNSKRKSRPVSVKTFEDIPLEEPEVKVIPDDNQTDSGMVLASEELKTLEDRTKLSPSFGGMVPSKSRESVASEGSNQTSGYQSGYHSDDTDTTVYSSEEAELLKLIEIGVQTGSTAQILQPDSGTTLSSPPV
# Some results were stated once for a whole list of compounds, not compound by compound. For some of these results: At least one read-out could not be matched to a standard name with certainty.
# What was measured:
# [1] = tested on: VEGF induced increases in intracellular calcium levels in HUVEC (human umbilical vein endothelial cells); experiment: VEGF Stimulated Ca++ Signal in vitro (FLIPR); assay type: cell-based; conditions: either-or criterion summarising Table 2
# Description: Cells were loaded with calcium indicator Fluo-4 for 45 minutes at 37° C. Cells were washed 4 times (Original Cell Wash, Labsystems) to remove extracellular dye. […] Data were generated by determining max-min fluorescence levels for unstimulated, stimulated, and drug treated samples. IC50 values for test compounds were calculated from % inhibition of VEGF stimulated responses in the absence of inhibitor.
# [2] = molecular target: T1, cytoplasmic domain of the human VEGF receptor (VEGFR-2) (Homo sapiens, UniProt P35968); experiment: KDR Assay; assay type: biochemical; conditions: His-VEGFR-2; 3.6 μM ATP
# T1 construct: The cytoplasmic domain of the human VEGF receptor (VEGFR-2) was expressed as a Histidine-tagged fusion protein; Histidine tag
# Description: The plates were incubated with 1% BSA and then washed four times with PBS prior to starting the reaction. […] Reactions were initiated by the addition 0.5 ng of purified protein. […] The reaction was terminated by the addition of 100 μl of 2.5N H2SO4 to each well and read using a microplate ELISA reader set at 492 nm. IC50 values for compound inhibition were calculated directly from graphs of optical density (arbitrary units) versus compound concentration following subtraction of blank values.
SMILES,IC50 [2] [nM],% inhibition of VEGF or VEGF IC50 in either the VEGF stimulated Ca++ signal assay or KDR assay [1]
"COc1ccc(NC=C2C(=O)Nc3cccc(C)c32)cc1O [Example 117, 3-[(3-Hydroxy-4-methoxy-phenylamino)-methylene]-4-methyl-1,3-dihydro-indol-2-one]",≤ 1000,either % inhibition of VEGF>79% or VEGIF IC50<1.0 μM
"CC(=O)Nc1ccc(NC=C2C(=O)Nc3cccc(C)c32)cc1 [Example 130, N-{4-[(4-Methyl-2-oxo-1,2-dihydro-indol-3-ylidenemethyl)-amino]-phenyl}-acetamide]",≤ 1000,either % inhibition of VEGF>79% or VEGIF IC50<1.0 μM
"Cc1cccc2c1C(=CNc1ccc(CCCC(=O)O)cc1)C(=O)N2 [Example 140, 4-{4-[(4-Methyl-2-oxo-1,2-dihydro-indol-3-ylidenemethyl)-amino]-phenyl}-butyric acid]",≤ 1000,either % inhibition of VEGF>79% or VEGIF IC50<1.0 μM
"Cc1cccc2c1C(=CNc1ccc(CCC(=O)O)cc1)C(=O)N2 [Example 145, 3-{4-[(4-Methyl-2-oxo-1,2-dihydro-indol-3-ylidenemethyl)-amino]-phenyl}-propionic acid]",≤ 1000,either % inhibition of VEGF>79% or VEGIF IC50<1.0 μM
"O=C1Nc2ccc(F)cc2C1=CNc1ccc2cn[nH]c2c1 [Example 163, 5-Fluoro-3-[(1 h-indazol-6-ylamino)-methylene]-1,3-dihydro-indol-2-one]",≤ 1000,either % inhibition of VEGF>79% or VEGIF IC50<1.0 μM
"COc1ccc(NC=C2C(=O)Nc3ccc(F)cc32)cc1O [Example 164, 5-Fluoro-3-[(3-hydroxy-4-methoxy-phenylamino)-methylene]-1,3-dihydro-indol-2-one]",≤ 1000,either % inhibition of VEGF>79% or VEGIF IC50<1.0 μM
"CN1CCN(c2ccc(NC=C3C(=O)Nc4ccc(F)cc43)cc2)CC1 [Example 168, 5-Fluoro-3-{[4-(4-methyl-piperazin-1-yl)-phenylamino]-methylene}-1,3-dihydro-indol-2-one]",≤ 1000,either % inhibition of VEGF>79% or VEGIF IC50<1.0 μM
"NC(=O)c1ccc(NC=C2C(=O)Nc3ccc(F)cc32)cc1 [Example 170, 4-[(5-Fluoro-2-oxo-1,2-dihydro-indol-3-ylidenemethyl)-amino]-benzamide]",≤ 1000,either % inhibition of VEGF>79% or VEGIF IC50<1.0 μM
"O=C1Nc2ccc(F)cc2C1=CNc1cccc(O)c1 [Example 177, 5-Fluoro-3-[(3-hydroxy-phenylamino)-methylene]-1,3-dihydro-indol-2-one]",≤ 1000,either % inhibition of VEGF>79% or VEGIF IC50<1.0 μM
"Cc1cccc2c1C(=CNc1cccc(C(C)O)c1)C(=O)N2 (stereo not shown) [Example 183, 3-{[3-(1-Hydroxy-ethyl)-phenylamino]-methylene}-4-methyl-1,3-dihydro-indol-2-one]",≤ 1000,either % inhibition of VEGF>79% or VEGIF IC50<1.0 μM
"Cc1cccc2c1C(=CNc1cccc(CO)c1)C(=O)N2 [Example 185, 3-[(3-Hydroxymethyl-phenylamino)-methylene]-4-methyl-1,3-dihydro-indol-2-one]",≤ 1000,either % inhibition of VEGF>79% or VEGIF IC50<1.0 μM
"CCN(CC)c1ccc(NC=C2C(=O)Nc3ccccc32)cc1 [Example 188, 3-[(4-Diethylamino-phenylamino)-methylene]-1,3-dihydro-indol-2-one]",≤ 1000,either % inhibition of VEGF>79% or VEGIF IC50<1.0 μM
"O=C1Nc2ccc(Cl)cc2C1=CNc1ccc(CCCCN2CCOCC2)cc1 [Example 313, 5-Chloro-3-{[4-(4-morpholin-4-yl-butyl)-phenylamino]-methylene}-1,3-dihydro-indol-2-one]",,either % inhibition of VEGF>79% or VEGIF IC50<1.0 μM
"Cc1cccc2c1C(=CNc1ccc(CCCCN3CCOCC3)cc1)C(=O)N2 [Example 314, 4-Methyl-3-{[4-(4-morpholin-4-yl-butyl)-phenylamino]-methylene}-1,3-dihydro-indol-2-one]",,either % inhibition of VEGF>79% or VEGIF IC50<1.0 μM
"O=C1Nc2ccc(F)cc2C1=CNc1ccc(CCCCN2CCOCC2)cc1 [Example 316, 5-Fluoro-3-{[4-(4-morpholin-4-yl-butyl)-phenylamino]-methylene}-1,3-dihydro-indol-2-one]",,either % inhibition of VEGF>79% or VEGIF IC50<1.0 μM
"O=C1Nc2cc(F)ccc2C1=CNc1ccc(CCCCN2CCOCC2)cc1 [Example 317, 6-Fluoro-3-{[4-(4-morpholin-4-yl-butyl)-phenylamino]-methylene}-1,3-dihydro-indol-2-one]",,either % inhibition of VEGF>79% or VEGIF IC50<1.0 μM
"O=C1Nc2ccc(Cl)cc2C1=CNc1ccc(CCCCN2CCCCC2)cc1 [Example 319, 5-Chloro-3-{[4-(4-piperidin-1-yl-butyl)-phenylamino]-methylene}-1,3-dihydro-indol-2-one]",,either % inhibition of VEGF>79% or VEGIF IC50<1.0 μM
"Cc1cccc2c1C(=CNc1ccc(CCCCN3CCCCC3)cc1)C(=O)N2 [Example 320, 4-Methyl-3-{[4-(4-piperidin-1-yl-butyl)-phenylamino]-methylene}-1,3-dihydro-indol-2-one]",,either % inhibition of VEGF>79% or VEGIF IC50<1.0 μM

# More lines, main results first:
IC50 [2] [nM],SMILES,% inhibition of VEGF or VEGF IC50 in either the VEGF stimulated Ca++ signal assay or KDR assay [1]
≤ 1000,"COc1ccc(NC=C2C(=O)Nc3ccccc32)cc1 [Example 7, 3-[(4-Methoxy-phenylamino)-methylene]-1,3-dihydro-indol-2-one]",either % inhibition of VEGF>79% or VEGIF IC50<1.0 μM
≤ 1000,"O=C1Nc2ccccc2C1=CNc1cccc(O)c1 [Example 15, 3-[(3-Hydroxy-phenylamino)-methylene]-1,3-dihydro-indol-2-one]",either % inhibition of VEGF>79% or VEGIF IC50<1.0 μM
≤ 1000,"O=C1Nc2ccccc2C1=CNc1ccc2[nH]ccc2c1 [Example 31, 3-[(5-Indolylamino)-methylene]-1,3-dihydro-indol-2-one]",either % inhibition of VEGF>79% or VEGIF IC50<1.0 μM
≤ 1000,"Cc1ccc(NC=C2C(=O)Nc3ccccc32)cc1O [Example 48, 3-[(3-Hydroxy-4-methyl-phenylamino)-methylene]-1,3-dihydro-indol-2-one]",either % inhibition of VEGF>79% or VEGIF IC50<1.0 μM
≤ 1000,"COc1ccc(NC=C2C(=O)Nc3ccccc32)cc1O [Example 49, 3-[(3-Hydroxy-4-methoxy-phenylamino)-methylene]-1,3-dihydro-indol-2-one]",either % inhibition of VEGF>79% or VEGIF IC50<1.0 μM
≤ 1000,"Cc1cccc2c1C(=CNc1ccccc1)C(=O)N2 [Example 58, 4-Methyl-3-phenylaminomethylene-1,3-dihydro-indol-2-one]",either % inhibition of VEGF>79% or VEGIF IC50<1.0 μM
≤ 1000,"O=C1Nc2ccccc2C1=CNc1ccc(CO)cc1 [Example 88, 3-[(4-Hydroxymethyl-phenylamino)-methylene]-1,3-dihydro-indol-2-one]",either % inhibition of VEGF>79% or VEGIF IC50<1.0 μM
≤ 1000,"Cc1cccc2c1C(=CNc1ccc3cn[nH]c3c1)C(=O)N2 [Example 90, 3-[(1H-Indazol-6-ylamino)-methylene]-4-methyl-1,3-dihydro-indol-2-one]",either % inhibition of VEGF>79% or VEGIF IC50<1.0 μM
≤ 1000,"Cc1cccc2c1C(=CNc1ccc(CO)cc1)C(=O)N2 [Example 99, 3-[(4-Hydroxymethyl-phenylamino)-methylene]-4-methyl-1,3-dihydro-indol-2-one]",either % inhibition of VEGF>79% or VEGIF IC50<1.0 μM
≤ 1000,"O=C1Nc2ccc(Cl)cc2C1=CNc1ccc(N2CCOCC2)cc1 [Example 106, 5-Chloro-3-[(4-morpholinophenylamino)-methylene]-1,3-dihydro-indol-2-one]",either % inhibition of VEGF>79% or VEGIF IC50<1.0 μM
≤ 1000,"Cc1cccc2c1C(=CNc1ccc(CCO)cc1)C(=O)N2 [Example 113, 3-{[4-(2-Hydroxy-ethyl)-phenylamino]-methylene}-4-methyl-1,3-dihydro-indol-2-one]",either % inhibition of VEGF>79% or VEGIF IC50<1.0 μM
